# Source: the supplement of paper PMC10849652
# Sequences of proteins named here, by UniProt entry; tags and fusion partners are left off. A change or cut given only in a name is not applied to a line headed by its entry.
# UniProt Q9NVU0: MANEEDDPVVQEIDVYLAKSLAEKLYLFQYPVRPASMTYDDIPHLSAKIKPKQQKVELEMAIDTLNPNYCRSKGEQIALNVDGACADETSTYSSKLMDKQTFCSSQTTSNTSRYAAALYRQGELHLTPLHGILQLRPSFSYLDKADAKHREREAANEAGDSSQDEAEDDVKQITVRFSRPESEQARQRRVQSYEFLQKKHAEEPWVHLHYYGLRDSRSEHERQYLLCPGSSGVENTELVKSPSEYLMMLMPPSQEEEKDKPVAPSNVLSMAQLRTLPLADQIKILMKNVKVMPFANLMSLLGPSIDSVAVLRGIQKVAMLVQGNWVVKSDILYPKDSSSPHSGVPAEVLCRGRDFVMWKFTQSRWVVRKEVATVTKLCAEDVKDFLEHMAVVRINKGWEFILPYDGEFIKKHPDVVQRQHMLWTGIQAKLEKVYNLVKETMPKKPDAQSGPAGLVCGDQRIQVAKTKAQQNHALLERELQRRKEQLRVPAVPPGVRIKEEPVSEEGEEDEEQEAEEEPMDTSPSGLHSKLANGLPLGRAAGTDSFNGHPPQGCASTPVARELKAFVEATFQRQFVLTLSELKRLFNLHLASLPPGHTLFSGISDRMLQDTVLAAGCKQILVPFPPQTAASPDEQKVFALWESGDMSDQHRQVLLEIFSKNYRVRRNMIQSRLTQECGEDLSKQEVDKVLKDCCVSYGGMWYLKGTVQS
# UniProt P49005: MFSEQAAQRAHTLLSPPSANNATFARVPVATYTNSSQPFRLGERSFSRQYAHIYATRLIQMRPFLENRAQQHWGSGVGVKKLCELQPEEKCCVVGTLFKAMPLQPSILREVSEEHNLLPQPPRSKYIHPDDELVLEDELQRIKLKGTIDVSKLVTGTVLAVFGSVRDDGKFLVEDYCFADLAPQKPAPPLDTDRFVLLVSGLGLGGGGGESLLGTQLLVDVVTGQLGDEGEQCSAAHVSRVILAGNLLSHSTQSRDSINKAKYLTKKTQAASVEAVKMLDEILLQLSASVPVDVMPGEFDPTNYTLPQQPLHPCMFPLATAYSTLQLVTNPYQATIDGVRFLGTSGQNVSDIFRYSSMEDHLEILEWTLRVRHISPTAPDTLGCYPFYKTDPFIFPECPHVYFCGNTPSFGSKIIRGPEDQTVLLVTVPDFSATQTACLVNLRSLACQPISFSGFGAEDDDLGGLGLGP
# UniProt P09884: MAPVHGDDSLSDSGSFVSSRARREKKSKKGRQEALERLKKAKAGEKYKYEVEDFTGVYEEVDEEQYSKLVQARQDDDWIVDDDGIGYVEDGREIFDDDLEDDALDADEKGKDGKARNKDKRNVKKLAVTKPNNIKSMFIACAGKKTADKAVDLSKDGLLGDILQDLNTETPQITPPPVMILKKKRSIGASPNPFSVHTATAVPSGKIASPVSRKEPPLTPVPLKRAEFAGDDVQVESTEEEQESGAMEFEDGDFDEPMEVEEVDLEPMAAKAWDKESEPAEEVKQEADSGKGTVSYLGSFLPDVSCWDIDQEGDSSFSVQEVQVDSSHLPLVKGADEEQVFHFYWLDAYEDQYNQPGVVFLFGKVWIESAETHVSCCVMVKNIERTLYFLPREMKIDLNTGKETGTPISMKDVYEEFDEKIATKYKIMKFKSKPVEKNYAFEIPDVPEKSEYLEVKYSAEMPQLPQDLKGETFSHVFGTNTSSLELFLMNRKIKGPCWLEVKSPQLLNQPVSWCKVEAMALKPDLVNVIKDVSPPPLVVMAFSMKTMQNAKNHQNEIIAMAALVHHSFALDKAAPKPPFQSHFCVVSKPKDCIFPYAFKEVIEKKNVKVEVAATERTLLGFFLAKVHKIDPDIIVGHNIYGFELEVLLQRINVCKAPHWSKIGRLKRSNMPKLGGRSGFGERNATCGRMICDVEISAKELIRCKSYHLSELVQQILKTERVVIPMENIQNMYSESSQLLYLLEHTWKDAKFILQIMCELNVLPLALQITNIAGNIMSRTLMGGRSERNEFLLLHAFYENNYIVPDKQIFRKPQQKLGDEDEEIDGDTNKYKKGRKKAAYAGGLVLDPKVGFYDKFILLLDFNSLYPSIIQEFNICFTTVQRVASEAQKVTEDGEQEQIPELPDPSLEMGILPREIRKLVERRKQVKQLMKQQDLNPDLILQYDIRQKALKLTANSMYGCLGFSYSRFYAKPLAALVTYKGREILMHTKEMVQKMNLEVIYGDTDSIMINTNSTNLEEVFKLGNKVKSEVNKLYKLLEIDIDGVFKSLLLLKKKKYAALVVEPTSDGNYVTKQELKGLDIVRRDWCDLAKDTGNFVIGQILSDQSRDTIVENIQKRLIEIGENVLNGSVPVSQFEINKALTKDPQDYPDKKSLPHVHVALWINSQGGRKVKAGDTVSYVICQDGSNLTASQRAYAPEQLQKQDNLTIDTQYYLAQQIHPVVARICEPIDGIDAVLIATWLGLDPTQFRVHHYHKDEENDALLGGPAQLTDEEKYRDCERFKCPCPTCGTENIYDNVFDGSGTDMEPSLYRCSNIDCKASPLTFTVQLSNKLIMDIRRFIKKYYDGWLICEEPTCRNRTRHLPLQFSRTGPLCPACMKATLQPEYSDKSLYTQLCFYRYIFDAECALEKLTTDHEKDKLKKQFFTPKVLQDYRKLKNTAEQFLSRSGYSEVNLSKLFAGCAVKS
# UniProt Q8N490: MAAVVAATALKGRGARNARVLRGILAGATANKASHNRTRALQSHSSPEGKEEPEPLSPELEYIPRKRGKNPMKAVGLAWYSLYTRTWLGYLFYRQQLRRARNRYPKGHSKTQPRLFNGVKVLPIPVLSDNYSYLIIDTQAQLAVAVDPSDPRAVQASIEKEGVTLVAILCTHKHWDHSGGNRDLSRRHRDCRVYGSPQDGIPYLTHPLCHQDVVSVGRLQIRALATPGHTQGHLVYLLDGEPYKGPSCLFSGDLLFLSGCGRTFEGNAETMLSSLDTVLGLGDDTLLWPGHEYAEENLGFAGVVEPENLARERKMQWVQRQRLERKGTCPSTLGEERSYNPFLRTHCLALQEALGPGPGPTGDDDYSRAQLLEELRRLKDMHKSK
# UniProt Q9Y2S7: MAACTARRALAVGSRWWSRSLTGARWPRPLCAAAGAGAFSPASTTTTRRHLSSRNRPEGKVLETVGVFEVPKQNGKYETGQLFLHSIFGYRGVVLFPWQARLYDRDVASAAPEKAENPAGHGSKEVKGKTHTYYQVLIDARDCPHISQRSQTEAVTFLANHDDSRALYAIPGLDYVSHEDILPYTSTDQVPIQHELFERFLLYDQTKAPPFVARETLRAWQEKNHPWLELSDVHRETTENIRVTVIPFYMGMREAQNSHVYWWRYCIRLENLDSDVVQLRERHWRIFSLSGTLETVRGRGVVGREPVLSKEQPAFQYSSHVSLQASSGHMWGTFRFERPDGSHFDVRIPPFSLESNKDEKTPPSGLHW
# UniProt O60568: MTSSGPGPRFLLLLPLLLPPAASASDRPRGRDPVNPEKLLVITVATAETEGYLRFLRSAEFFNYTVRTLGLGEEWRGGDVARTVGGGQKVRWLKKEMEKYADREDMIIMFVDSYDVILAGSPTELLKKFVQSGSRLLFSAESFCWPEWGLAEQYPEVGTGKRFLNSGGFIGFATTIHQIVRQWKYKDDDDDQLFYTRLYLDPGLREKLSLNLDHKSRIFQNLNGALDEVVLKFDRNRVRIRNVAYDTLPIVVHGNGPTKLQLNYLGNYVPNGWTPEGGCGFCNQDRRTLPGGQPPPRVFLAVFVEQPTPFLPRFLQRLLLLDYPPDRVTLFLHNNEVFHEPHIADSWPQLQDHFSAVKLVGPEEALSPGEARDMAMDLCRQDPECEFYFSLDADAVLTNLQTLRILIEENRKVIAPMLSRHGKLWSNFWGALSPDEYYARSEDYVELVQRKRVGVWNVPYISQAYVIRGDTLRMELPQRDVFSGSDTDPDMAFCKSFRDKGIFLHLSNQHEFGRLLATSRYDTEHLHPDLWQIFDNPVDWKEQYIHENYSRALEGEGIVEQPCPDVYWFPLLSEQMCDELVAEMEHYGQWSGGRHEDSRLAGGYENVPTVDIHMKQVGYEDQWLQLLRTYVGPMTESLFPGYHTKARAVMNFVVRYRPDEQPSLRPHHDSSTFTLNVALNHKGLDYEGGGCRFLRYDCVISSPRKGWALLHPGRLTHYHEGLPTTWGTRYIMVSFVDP
# UniProt P0CG38, whole entry, looked up: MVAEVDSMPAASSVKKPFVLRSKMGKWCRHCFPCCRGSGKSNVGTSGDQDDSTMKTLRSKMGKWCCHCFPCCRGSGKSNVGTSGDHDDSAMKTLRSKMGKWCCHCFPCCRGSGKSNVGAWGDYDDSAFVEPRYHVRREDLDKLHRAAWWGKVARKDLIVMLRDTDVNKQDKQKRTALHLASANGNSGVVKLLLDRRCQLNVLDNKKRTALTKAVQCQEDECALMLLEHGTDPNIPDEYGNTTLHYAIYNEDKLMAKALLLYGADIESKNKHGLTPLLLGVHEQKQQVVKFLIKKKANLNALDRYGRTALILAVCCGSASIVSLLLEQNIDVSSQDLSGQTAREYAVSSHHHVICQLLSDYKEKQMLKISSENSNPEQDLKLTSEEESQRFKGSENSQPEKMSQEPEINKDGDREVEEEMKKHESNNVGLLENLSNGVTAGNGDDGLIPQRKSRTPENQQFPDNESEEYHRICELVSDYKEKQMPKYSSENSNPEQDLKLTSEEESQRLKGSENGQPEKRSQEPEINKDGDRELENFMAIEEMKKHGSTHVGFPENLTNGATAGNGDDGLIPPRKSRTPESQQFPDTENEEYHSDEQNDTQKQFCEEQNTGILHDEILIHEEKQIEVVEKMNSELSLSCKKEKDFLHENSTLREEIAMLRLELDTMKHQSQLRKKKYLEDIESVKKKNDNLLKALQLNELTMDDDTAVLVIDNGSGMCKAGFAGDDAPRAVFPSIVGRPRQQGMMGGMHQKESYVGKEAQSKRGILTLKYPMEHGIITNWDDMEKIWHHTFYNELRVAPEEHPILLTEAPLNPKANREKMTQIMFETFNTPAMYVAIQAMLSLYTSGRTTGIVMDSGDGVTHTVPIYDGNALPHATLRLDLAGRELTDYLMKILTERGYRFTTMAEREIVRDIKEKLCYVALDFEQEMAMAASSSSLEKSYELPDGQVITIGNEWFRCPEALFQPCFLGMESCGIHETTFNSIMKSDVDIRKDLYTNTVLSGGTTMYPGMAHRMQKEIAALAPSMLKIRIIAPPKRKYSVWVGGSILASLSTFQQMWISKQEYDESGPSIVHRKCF
# UniProt Q8NAT1: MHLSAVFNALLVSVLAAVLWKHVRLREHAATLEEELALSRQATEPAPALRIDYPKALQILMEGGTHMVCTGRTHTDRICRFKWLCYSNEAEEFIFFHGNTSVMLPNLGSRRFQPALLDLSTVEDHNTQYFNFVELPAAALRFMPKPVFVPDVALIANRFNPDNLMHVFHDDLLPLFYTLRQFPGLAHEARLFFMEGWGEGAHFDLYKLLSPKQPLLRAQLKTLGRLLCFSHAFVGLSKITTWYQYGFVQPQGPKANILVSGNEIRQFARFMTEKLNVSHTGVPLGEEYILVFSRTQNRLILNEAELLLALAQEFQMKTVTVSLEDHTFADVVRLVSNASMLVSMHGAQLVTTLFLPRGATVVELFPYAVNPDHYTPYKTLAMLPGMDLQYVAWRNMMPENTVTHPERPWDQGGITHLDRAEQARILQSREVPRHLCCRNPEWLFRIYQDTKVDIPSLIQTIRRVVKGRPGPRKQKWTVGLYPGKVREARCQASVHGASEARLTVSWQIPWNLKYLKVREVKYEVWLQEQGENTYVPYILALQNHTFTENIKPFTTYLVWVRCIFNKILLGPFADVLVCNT
# UniProt Q6UW63: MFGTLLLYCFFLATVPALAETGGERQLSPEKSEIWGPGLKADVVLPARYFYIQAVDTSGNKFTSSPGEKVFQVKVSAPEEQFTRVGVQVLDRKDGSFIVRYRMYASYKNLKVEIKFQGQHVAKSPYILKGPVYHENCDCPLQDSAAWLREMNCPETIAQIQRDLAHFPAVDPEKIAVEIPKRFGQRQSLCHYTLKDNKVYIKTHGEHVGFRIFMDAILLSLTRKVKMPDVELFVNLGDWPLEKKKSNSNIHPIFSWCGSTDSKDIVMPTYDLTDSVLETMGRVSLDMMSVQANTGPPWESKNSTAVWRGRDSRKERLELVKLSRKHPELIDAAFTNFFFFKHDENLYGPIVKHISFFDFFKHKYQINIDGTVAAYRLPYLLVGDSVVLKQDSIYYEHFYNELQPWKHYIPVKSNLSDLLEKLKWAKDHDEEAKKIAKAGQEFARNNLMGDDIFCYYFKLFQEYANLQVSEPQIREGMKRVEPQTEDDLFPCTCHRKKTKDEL
# UniProt Q9NRX1: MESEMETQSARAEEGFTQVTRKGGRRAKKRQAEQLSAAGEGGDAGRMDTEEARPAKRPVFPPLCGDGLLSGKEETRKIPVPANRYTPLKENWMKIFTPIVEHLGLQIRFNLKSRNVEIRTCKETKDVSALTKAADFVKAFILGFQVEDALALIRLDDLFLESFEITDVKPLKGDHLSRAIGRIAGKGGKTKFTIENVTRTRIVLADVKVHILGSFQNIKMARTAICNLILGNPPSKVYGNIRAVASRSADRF
# The list shows a part of the results.
# What was measured:
# Experiment in all cases: log2 fold change, soluble protein after heating vs DMSO (PISA); higher = thermal stabilisation; K562 lysate, 10 uM; active = over 0.2 and 3.5 SD of the protein, either way, in both replicates (recomputed)
# nilotinib = compound: Cc1cn(-c2cc(NC(=O)c3ccc(C)c(Nc4nccc(-c5cccnc5)n4)c3)cc(C(F)(F)F)c2)cn1 [nilotinib]
# Procedure, shortened: (§1)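 A 30 min treatment with 10 μM compound was applied to crude K562 extract at 1 mg/mL protein in PBS pH 7.4 with 1 mM MgCl2. Heating for 3 min spanned 48°C-58°C, after which aliquots were pooled, adjusted to 0.5% NP-40 at 4°C and spun at 21,000xg for 90 min. TMTpro 16plex LC-MS/MS of the supernatant, with channel sums equalised, gave values recorded as log-two fold change in thermal stability against solvent controls, from duplicates.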
# [1] = compound: Cc1nc(Nc2n[nH]c3c2CN(C(=O)N[C@H](CN(C)C)c2ccccc2)C3(C)C)c2sccc2n1
# Procedure, shortened: as §1
# dasatinib = compound: Cc1nc(Nc2ncc(C(=O)Nc3c(C)cccc3Cl)s2)cc(N2CCN(CCO)CC2)n1 [dasatinib]
# Procedure, shortened: as §1
# [2] = compound: Cc1ncc(-c2ccnc(Nc3ccc(S(C)(=O)=O)cc3)n2)n1C(C)C
# Procedure, shortened: as §1
# [3] = compound: Cn1cc(-c2ccc3c(c2)CCN3C(=O)Cc2cccc(C(F)(F)F)c2)c2c(N)ncnc21
# Procedure, shortened: as §1
# quisinostat = compound: Cn1cc(CNCC2CCN(c3ncc(C(=O)NO)cn3)CC2)c2ccccc21 [quisinostat]
# Procedure, shortened: as §1
# tipifarnib = compound: Cn1cncc1[C@@](N)(c1ccc(Cl)cc1)c1ccc2c(c1)c(-c1cccc(Cl)c1)cc(=O)n2C [tipifarnib]
# Procedure, shortened: as §1
# [4] = compound: NC(=O)Nc1cc(-c2cccc(F)c2)sc1C(=O)N[C@H]1CCCNC1
# Procedure, shortened: as §1
# [5] = compound: NC(=O)c1cnc(N[C@@H]2CCCC[C@@H]2N)nc1Nc1cccc(-n2nccn2)c1
# Procedure, shortened: as §1
# [6] = compound: NC1(c2ccc(-c3nc4ccn5c(=O)[nH]nc5c4cc3-c3ccccc3)cc2)CCC1
# Procedure, shortened: as §1
# [7] = compound: NCC(=O)Nc1ccc(-n2nc(C(F)(F)F)cc2-c2ccc3c(ccc4ccccc43)c2)cc1
# Procedure, shortened: as §1
# vorinostat = compound: O=C(CCCCCCC(=O)Nc1ccccc1)NO [vorinostat]
# Procedure, shortened: as §1
# silmitasertib = compound: O=C(O)c1ccc2c(c1)nc(Nc1cccc(Cl)c1)c1ccncc12 [silmitasertib]
# Procedure, shortened: as §1
# [8] = compound: O=C1NC(=O)C(c2cnc3ccccn23)=C1c1cn2c3c(cc(F)cc13)CN(C(=O)N1CCCCC1)CC2
# Procedure, shortened: as §1
# entospletinib = compound: c1cn2cc(-c3ccc4cn[nH]c4c3)nc(Nc3ccc(N4CCOCC4)cc3)c2n1 [entospletinib]
# Procedure, shortened: as §1
Target,log2 fold change (nilotinib),log2 fold change [1],log2 fold change (dasatinib),log2 fold change [2],log2 fold change [3],log2 fold change (quisinostat),log2 fold change (tipifarnib),log2 fold change [4],log2 fold change [5],log2 fold change [6],log2 fold change [7],log2 fold change (vorinostat),log2 fold change (silmitasertib),log2 fold change [8],log2 fold change (entospletinib)
POLR3E (UniProt Q9NVU0),inactive: 0.017,inactive: -0.054,inactive: -0.035,inactive: -0.018,inactive: 0.018,inactive: -0.023,inactive: 0.04,inactive: 0.037,inactive: 0.009,inactive: -0.001,inactive: -0.017,active: -0.263,inactive: -0.023,inactive: 0.027,inactive: -0.004
POLD2 (UniProt P49005),inactive: -0.019,inactive: -0.004,inactive: -0.018,inactive: -0.029,inactive: -0.021,inactive: 0.006,inactive: -0.007,inactive: 0.026,inactive: -0.006,inactive: -0.006,inactive: 0.011,inactive: -0.124,inactive: -0.018,inactive: 0.028,inactive: -0.038
POLA1 (UniProt P09884),inactive: -0.022,inactive: -0.01,inactive: 0.011,inactive: 0.017,inactive: 0.009,inactive: -0.028,inactive: -0.001,inactive: 0.029,inactive: 0.001,inactive: 0.008,inactive: 0.009,active: -0.293,inactive: -0.019,inactive: 0.006,inactive: -0.016
POLR2H (UniProt P52434),inactive: -0.018,inactive: -0.012,inactive: 0.026,inactive: 0.013,inactive: -0.044,inactive: -0.015,inactive: 0.019,inactive: 0.026,inactive: 0.02,inactive: -0.011,inactive: 0.032,inactive: 0.086,inactive: -0.004,inactive: 0.018,inactive: -0.002
PNKD (UniProt Q8N490),inactive: -0.016,inactive: -0.022,inactive: -0.017,inactive: -0.002,inactive: -0.059,inactive: 0.064,inactive: 0.163,inactive: 0.119,inactive: 0.026,inactive: -0.178,inactive: -0.012,inactive: 0.034,inactive: -0.139,inactive: 0.029,inactive: -0.092
POLDIP2 (UniProt Q9Y2S7),inactive: -0.018,inactive: -0.031,inactive: 0.011,inactive: -0.004,inactive: -0.008,inactive: 0.046,inactive: -0.02,inactive: -0.002,inactive: 0.036,inactive: -0.004,inactive: -0.021,inactive: 0.193,inactive: 0.026,inactive: -0.014,inactive: 0.016
POLB (UniProt P06746),inactive: 0.035,inactive: -0.013,inactive: 0,inactive: -0.026,inactive: 0.008,inactive: -0.028,inactive: 0.002,inactive: 0.022,inactive: 0.012,inactive: -0.053,inactive: 0.027,active: -0.302,inactive: -0.106,inactive: -0.023,inactive: 0.022
PLOD3 (UniProt O60568),inactive: 0.008,inactive: -0.018,inactive: 0,inactive: -0.022,inactive: 0.029,inactive: 0.044,inactive: -0.012,inactive: 0.032,inactive: -0.005,inactive: -0.011,inactive: -0.019,inactive: 0.129,inactive: -0.004,inactive: -0.031,inactive: -0.002
PNPO (UniProt Q9NVS9),inactive: 0.01,inactive: -0.048,inactive: -0.001,inactive: 0.021,inactive: 0.006,inactive: 0.047,inactive: 0.001,inactive: 0.01,inactive: -0.002,inactive: -0.018,inactive: -0.224,inactive: -0.093,inactive: -0.002,inactive: -0.034,inactive: 0.022
POLE4 (UniProt Q9NR33),inactive: 0.078,inactive: -0.152,inactive: -0.023,inactive: 0.102,inactive: 0.031,inactive: 0.135,inactive: 0.052,inactive: -0.023,inactive: -0.051,inactive: -0.05,inactive: 0.077,inactive: 0.083,inactive: -0.066,inactive: -0.027,inactive: -0.104
POFUT1 (UniProt Q9H488),inactive: -0.026,inactive: 0.01,inactive: 0.042,inactive: -0.033,inactive: -0.036,inactive: 0.089,inactive: -0.051,inactive: 0.021,inactive: -0.034,inactive: 0.042,inactive: -0.016,inactive: 0.131,inactive: -0.026,inactive: -0.002,inactive: 0.018
POLR3D (UniProt P05423),inactive: -0.019,inactive: 0.011,inactive: -0.004,inactive: 0.012,inactive: -0.095,inactive: -0.055,inactive: 0.025,inactive: -0.009,inactive: 0.002,inactive: -0.021,inactive: 0.007,inactive: -0.063,inactive: -0.021,inactive: 0,inactive: -0.016
POTEI (UniProt P0CG38),inactive: 0.09,inactive: -0.038,inactive: -0.006,inactive: -0.01,inactive: -0.01,inactive: -0.057,inactive: 0.04,inactive: 0.041,inactive: 0.008,inactive: -0.005,inactive: 0.031,inactive: -0.018,inactive: 0.016,inactive: 0.033,inactive: 0.036
POLR3B (UniProt Q9NW08),inactive: -0.016,inactive: -0.014,inactive: -0.019,inactive: -0.003,inactive: -0.026,inactive: -0.013,inactive: 0.044,inactive: 0.026,inactive: 0.009,inactive: 0.027,inactive: 0.004,inactive: -0.202,inactive: 0,inactive: -0.041,inactive: -0.044
POLR2I (UniProt P36954),inactive: 0.065,inactive: 0.061,inactive: -0.164,inactive: 0.093,inactive: -0.034,inactive: 0.302,inactive: 0.085,inactive: -0.223,inactive: -0.068,inactive: 0.065,inactive: -0.092,inactive: 0.122,inactive: 0.101,inactive: 0.009,–
POLDIP3 (UniProt Q9BY77),inactive: 0.158,inactive: 0.032,inactive: 0.027,inactive: -0.001,inactive: 0.02,inactive: -0.04,inactive: -0.045,inactive: -0.021,inactive: -0.037,inactive: -0.001,inactive: 0.161,inactive: -0.09,inactive: -0.006,inactive: -0.007,–
POT1 (UniProt Q9NUX5),inactive: -0.011,inactive: -0.017,inactive: -0.008,inactive: 0.044,inactive: 0.045,inactive: -0.021,inactive: 0.035,inactive: 0.065,inactive: -0.023,inactive: 0.012,inactive: 0.098,inactive: -0.008,inactive: 0.081,inactive: -0.021,inactive: -0.059
POMGNT2 (UniProt Q8NAT1),inactive: 0.051,inactive: -0.046,inactive: 0.009,inactive: 0.078,inactive: -0.015,inactive: -0.079,inactive: -0.114,inactive: 0.06,inactive: -0.038,inactive: 0.012,inactive: -0.105,inactive: 0.005,inactive: 0.024,inactive: -0.013,inactive: 0.013
POGLUT2 (UniProt Q6UW63),inactive: 0.026,inactive: -0.015,inactive: -0.007,inactive: -0.04,inactive: 0.013,inactive: -0.019,inactive: 0.026,inactive: 0.024,inactive: -0.023,inactive: 0.001,inactive: -0.032,inactive: 0.06,inactive: 0.02,inactive: -0.018,inactive: -0.011
POGK (UniProt Q9P215),inactive: -0.04,inactive: 0.005,inactive: -0.068,inactive: -0.001,inactive: -0.023,inactive: -0.086,inactive: 0.007,inactive: 0.108,inactive: 0.008,inactive: -0.006,inactive: 0.018,inactive: -0.173,inactive: 0.002,inactive: -0.083,inactive: 0.3
PNO1 (UniProt Q9NRX1),inactive: -0.01,inactive: -0.005,inactive: 0,inactive: 0.008,inactive: 0.009,inactive: 0.047,inactive: -0.015,inactive: 0.004,inactive: -0.012,inactive: 0.013,inactive: 0,inactive: -0.143,inactive: 0.05,inactive: 0.052,inactive: 0.011

# A portion from the list above, for reference:
Target,log2 fold change (nilotinib),log2 fold change [1],log2 fold change (dasatinib),log2 fold change [2],log2 fold change [3],log2 fold change (quisinostat),log2 fold change (tipifarnib),log2 fold change [4],log2 fold change [5],log2 fold change [6],log2 fold change [7],log2 fold change (vorinostat),log2 fold change (silmitasertib),log2 fold change [8],log2 fold change (entospletinib)
POLB (UniProt P06746),inactive: 0.035,inactive: -0.013,inactive: 0,inactive: -0.026,inactive: 0.008,inactive: -0.028,inactive: 0.002,inactive: 0.022,inactive: 0.012,inactive: -0.053,inactive: 0.027,active: -0.302,inactive: -0.106,inactive: -0.023,inactive: 0.022
PLOD3 (UniProt O60568),inactive: 0.008,inactive: -0.018,inactive: 0,inactive: -0.022,inactive: 0.029,inactive: 0.044,inactive: -0.012,inactive: 0.032,inactive: -0.005,inactive: -0.011,inactive: -0.019,inactive: 0.129,inactive: -0.004,inactive: -0.031,inactive: -0.002
PNPO (UniProt Q9NVS9),inactive: 0.01,inactive: -0.048,inactive: -0.001,inactive: 0.021,inactive: 0.006,inactive: 0.047,inactive: 0.001,inactive: 0.01,inactive: -0.002,inactive: -0.018,inactive: -0.224,inactive: -0.093,inactive: -0.002,inactive: -0.034,inactive: 0.022
POLE4 (UniProt Q9NR33),inactive: 0.078,inactive: -0.152,inactive: -0.023,inactive: 0.102,inactive: 0.031,inactive: 0.135,inactive: 0.052,inactive: -0.023,inactive: -0.051,inactive: -0.05,inactive: 0.077,inactive: 0.083,inactive: -0.066,inactive: -0.027,inactive: -0.104
POFUT1 (UniProt Q9H488),inactive: -0.026,inactive: 0.01,inactive: 0.042,inactive: -0.033,inactive: -0.036,inactive: 0.089,inactive: -0.051,inactive: 0.021,inactive: -0.034,inactive: 0.042,inactive: -0.016,inactive: 0.131,inactive: -0.026,inactive: -0.002,inactive: 0.018
